The source of these data is article PMC11597439.

The target in the data set is EGFR (cell-surface, endogenous) (UniProt P00533). Nature of the data set: flow cytometry on cells. The note with it: 5'-alkyne clicked to AF488 azide (CuAAC triazole), 1e5 cells, 1-1000 nM oligonucleotide, 1 h at 37 C, 5% CO2, washed twice with DPBS (Ca/Mg), incubation medium and pH not stated, protein on the cell surface, label: 5'-AF488, single-stranded DNA. Background: Flow cytometry measures light scatter and fluorescence of single cells or particles in a stream.

The exact form of at least one protein or probe is not confirmed. Where cells or extracts were used, other partners may take part. A weaker result is weaker than the reference pair of the same experiment.

With “ACGCACCATTTGTTTAATATGTTTTTTAATTCCCCTTGTGGTGTGT [AF488-GR20]”, the binding result is “binds” (A-431 cells (EGFR overexpressing), 1000 nM, about one order of magnitude above A1); “binds more weakly” (HCT-116 cells, weak staining, virtually no difference from A1); “binds more weakly” (U-87 cells, weak staining, virtually no difference from A1); “binds” (U-251 cells, 1000 nM, about two orders of magnitude above A1).

As for GGTCGCTTATCTGCACTCGGA [AF488-A1], the binding result (A-431 cells, about one order of magnitude below GR20) is “binds more weakly” and the binding result (U-251 cells, very weak binding) is “binds more weakly”.
